# Record: PubChem BioAssay AID504764 (Drosophila RNAi Screening Center, 2011)
# Aim: 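Genes whose knock-down alters Notch-dependent transcription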 (primary screen)
# Cell system: Drosophila Kc167 cells
# Reagents: long dsRNA against Drosophila genes
# Timing: about 5 days (4 days dsRNA, then 24 h after transfection)
# Challenge: transfection of constitutively active membrane-tethered Notch lacking the extracellular domain, read 24 h later
# Measured: 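Firefly luciferase from an E(spl)m3 reporter with active Notch, plus control-promoter and uninduced reporter wells for normalisation; unnormalised counts, duplicate wells a and b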
# Scale: induced reporter light, run 1, well a and induced reporter light, run 1, well b: higher = more light from the Notch target reporter with active Notch; control promoter light, run 1, well a and control promoter light, run 1, well b: higher = more light from the viral control promoter (cell number, transfection, viability); uninduced reporter light, run 1, well a: higher = more light from the Notch target reporter without active Notch
# Rule for the call: 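Hit if the duplicate-averaged log2 ratio of induced to control-promoter light gives a plate-wise z beyond ±2, or induced to uninduced beyond ±1.8; weak-control or discordant-duplicate wells dropped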
# Meaning of the calls: active = modifier hit (raised or lowered Notch signal); inactive = not a hit
# The deposit covers about 22,000 reagents; below is an unselected part of those that have a named target and a result. Over the whole deposit, 403 (1.9%) were called active. 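Unnormalised raw counts per well; ratio z-scores behind the hit calls and whether each hit raises or lowers signal are not deposited.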 The numbers tell different reagents against one gene apart. Names joined by + are all predicted targets of the reagent. Not stated in the record: the amount of reagent.
gene,reagent,"induced reporter light, run 1, well a","induced reporter light, run 1, well b","control promoter light, run 1, well a","control promoter light, run 1, well b","uninduced reporter light, run 1, well a",Call
nau (nautilus),1,1.33e5,1.31e5,1.33e5,1.07e5,10795,inactive
dlg1 (discs large 1),1,62890,62295,37160,28950,4695,inactive
dlg1 (discs large 1),2,92905,81240,83285,69895,7070,inactive
dlg1 (discs large 1),3,69035,55890,83760,93505,6125,inactive
dlg1 (discs large 1),4,1.93e5,1.84e5,1.90e5,2.28e5,12070,inactive
CG33474,1,2.98e5,3.29e5,4.43e5,4.05e5,25510,inactive
aru (arouser),1,1.34e5,1.04e5,99625,52795,9905,inactive
RpS2 (Ribosomal protein S2),1,14155,14475,12975,12030,868,inactive
CG16972,1,2.98e5,2.75e5,2.92e5,2.33e5,20538,inactive
ND4 (retired record),1,93895,1.09e5,95285,1.18e5,10240,inactive
Scm (Sex comb on midleg),1,93305,97980,88410,56685,4480,inactive
bc10,1,2.27e5,2.31e5,4.24e5,3.00e5,17515,inactive
CecA1 (Cecropin A1),1,1.74e5,1.41e5,1.94e5,1.99e5,11160,inactive
GILT3 (Gamma-interferon-inducible lysosomal thiol reductase 3),1,2.09e5,2.35e5,2.41e5,2.50e5,19005,inactive
CG12814,1,1.75e5,1.33e5,1.04e5,1.02e5,9780,inactive
CG12814,2,90130,70340,70150,48360,5015,inactive
CG33109,1,3.48e5,3.56e5,3.44e5,3.75e5,27170,inactive
pain (painless),1,2.25e5,1.80e5,1.97e5,1.76e5,14478,inactive
Prosalpha1R + Prosalpha1,1,1.46e5,1.40e5,99255,1.05e5,7850,inactive
CG14537,1,1.33e5,1.59e5,87285,1.15e5,22160,inactive
CG14926,1,2.13e5,2.15e5,1.24e5,1.48e5,21705,inactive
slmb (supernumerary limbs),1,16105,19985,15830,18110,2630,inactive
Rab32,1,35030,53090,57695,71725,1825,inactive
Rab32,2,1.83e5,2.13e5,1.87e5,1.84e5,15650,inactive
CG14000,1,1.51e5,1.04e5,1.33e5,1.21e5,9675,inactive
Vha68-3 (Vacuolar H[+] ATPase 68kD subunit 3),1,1.48e5,1.73e5,1.86e5,1.70e5,16045,inactive
Kdm4A (Lysine demethylase 4A),1,1.54e5,1.65e5,1.59e5,1.60e5,13795,inactive
Cipc (Clock interacting protein circadian),1,1.71e5,1.72e5,2.57e5,2.42e5,14295,inactive
Cipc (Clock interacting protein circadian),2,1.62e5,1.40e5,1.90e5,1.92e5,12055,inactive
Prosbeta3 (Proteasome beta3 subunit),1,20478,17000,13990,15655,1478,inactive
CG32111 (retired record),1,1.91e5,1.63e5,2.13e5,2.58e5,18965,inactive
CG14302,1,2.09e5,1.56e5,1.57e5,1.41e5,11785,inactive
CG42808 + CG42807,1,1.88e5,1.47e5,1.74e5,1.33e5,13290,inactive
CG42808 + CG42807,2,1.34e5,92275,1.41e5,1.13e5,11025,inactive
CG13653,1,1.37e5,1.56e5,2.42e5,1.87e5,12420,inactive
CG14330,1,2.24e5,2.30e5,2.19e5,2.25e5,18525,inactive
CG33080,1,1.33e5,1.36e5,2.44e5,2.53e5,10610,inactive
CG33080,2,1.38e5,1.65e5,3.42e5,2.48e5,10400,inactive
CG33080,3,1.95e5,1.86e5,4.24e5,3.90e5,15350,inactive
neur (neuralized),1,1.42e5,1.19e5,98605,82485,11100,inactive
Ir7g (Ionotropic receptor 7g),1,1.93e5,1.62e5,2.85e5,2.86e5,10915,inactive
Pax (Paxillin),1,82270,66895,82030,48825,5970,inactive
Pax (Paxillin),2,2.13e5,2.20e5,2.34e5,2.74e5,17980,inactive
Pax (Paxillin),3,49715,32660,36130,42560,1942,inactive
CG14691,1,69895,73770,68480,50780,3520,inactive
CG30127 (retired record),1,79710,1.04e5,1.50e5,1.26e5,7355,inactive
CG30127 (retired record),2,96690,1.01e5,1.75e5,1.41e5,10225,inactive
ldbr (lariat debranching enzyme),1,98775,83310,53135,29065,8475,inactive
sns (sticks and stones),1,6795,6088,9380,7910,1975,inactive
sns (sticks and stones),2,1.28e5,1.29e5,1.83e5,1.79e5,10395,inactive
sns (sticks and stones),3,2.31e5,1.72e5,2.64e5,2.49e5,15285,inactive
sns (sticks and stones),4,1.28e5,1.63e5,1.93e5,1.58e5,14330,inactive
sns (sticks and stones),5,1.69e5,1.77e5,1.61e5,1.80e5,15840,inactive
sns (sticks and stones),6,27195,21700,25075,24310,5640,inactive
